{"sequences": {"note": "The chains behind the UniProt entries cited, without tags or fusion partners. Residues count along the entry.", "UniProt Q62151, residues 23-402": "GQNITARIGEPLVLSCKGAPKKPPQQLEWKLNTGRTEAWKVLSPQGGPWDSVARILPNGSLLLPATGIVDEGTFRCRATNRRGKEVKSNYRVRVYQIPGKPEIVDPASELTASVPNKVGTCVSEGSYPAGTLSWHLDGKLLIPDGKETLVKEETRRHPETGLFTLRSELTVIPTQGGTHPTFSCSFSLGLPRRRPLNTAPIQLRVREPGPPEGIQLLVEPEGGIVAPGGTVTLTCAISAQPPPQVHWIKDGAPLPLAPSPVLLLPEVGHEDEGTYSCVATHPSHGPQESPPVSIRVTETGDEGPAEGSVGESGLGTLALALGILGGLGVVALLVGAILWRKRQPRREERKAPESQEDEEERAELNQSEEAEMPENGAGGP"}, "source": "paper PMC5004123", "target": "receptor for advanced glycation end products (RAGE) (mouse (endogenous in MLVECs)) (UniProt Q62151)", "assay": "co-IP; MLVECs cultured with or without 100 ng/mL HMGB1 for 1 h; lysed in RIPA buffer; lysates pre-cleared with normal IgG and Protein A+G Agarose beads, then incubated with anti-Cav-1 or anti-RAGE antibodies and Protein A+G Agarose beads overnight at 4 °C; 3 washes with PBS; immunoblotting", "note": "Results are given in words; binding and its absence hold for the method and conditions named. In cells and extracts the contact can be indirect. Some results given as binding are weak or reduced against the parent protein; the word gives no strength.", "data": [{"binder": "caveolin (Cav)-1 (protein, UniProt P49817 1-178) MSGGKYVDSEGHLYTVPIREQGNIYKPNNKAMADEVTEKQVYDAHTKEIDLVNRDPKHLNDDVVKIDFEDVIAEPEGTHSFDGIWKASFTTFTVTKYWFYRLLSTIFGIPMALIWGIYFAILSFLHIWAVVPCIKSFLIEIQCISRVYSIYVHTFCDPLFEAIGKIFSNIRISTQKEI", "values": [{"measurement": "binding", "value": "binds"}]}]}
